According to the supplement of paper PMC10849652:
This is one part of the list.

Chains of the proteins cited; added tags and fusions are not shown. Lines headed by an entry give the natural chain unless they say otherwise; changes in a name come on top.
UniProt C9J7I0: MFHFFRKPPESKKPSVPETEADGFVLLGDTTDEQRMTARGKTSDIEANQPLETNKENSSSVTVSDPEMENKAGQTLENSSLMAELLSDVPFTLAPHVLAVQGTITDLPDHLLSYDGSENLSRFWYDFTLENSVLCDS
UniProt Q16831: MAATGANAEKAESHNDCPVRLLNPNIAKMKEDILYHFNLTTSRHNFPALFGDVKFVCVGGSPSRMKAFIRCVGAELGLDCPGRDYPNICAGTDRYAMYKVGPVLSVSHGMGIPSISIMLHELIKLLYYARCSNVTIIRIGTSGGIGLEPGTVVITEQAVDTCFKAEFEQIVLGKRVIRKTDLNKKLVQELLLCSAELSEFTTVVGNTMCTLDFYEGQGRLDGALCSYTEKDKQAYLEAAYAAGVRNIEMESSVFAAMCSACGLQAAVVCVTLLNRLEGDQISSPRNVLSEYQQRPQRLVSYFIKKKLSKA
UniProt Q9BTM9: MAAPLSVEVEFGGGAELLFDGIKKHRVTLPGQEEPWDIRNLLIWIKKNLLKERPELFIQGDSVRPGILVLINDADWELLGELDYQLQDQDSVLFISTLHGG
UniProt O75317, whole entry, looked up: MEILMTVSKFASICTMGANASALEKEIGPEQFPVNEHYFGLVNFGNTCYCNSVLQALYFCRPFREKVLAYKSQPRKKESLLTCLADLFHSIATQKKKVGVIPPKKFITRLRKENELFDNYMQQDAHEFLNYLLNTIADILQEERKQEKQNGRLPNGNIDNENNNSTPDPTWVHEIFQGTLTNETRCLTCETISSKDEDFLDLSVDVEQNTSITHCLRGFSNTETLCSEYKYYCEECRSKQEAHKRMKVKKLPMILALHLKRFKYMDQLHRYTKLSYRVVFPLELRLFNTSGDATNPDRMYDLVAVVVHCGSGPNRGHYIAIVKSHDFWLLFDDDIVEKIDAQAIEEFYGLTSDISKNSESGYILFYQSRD
UniProt Q14146: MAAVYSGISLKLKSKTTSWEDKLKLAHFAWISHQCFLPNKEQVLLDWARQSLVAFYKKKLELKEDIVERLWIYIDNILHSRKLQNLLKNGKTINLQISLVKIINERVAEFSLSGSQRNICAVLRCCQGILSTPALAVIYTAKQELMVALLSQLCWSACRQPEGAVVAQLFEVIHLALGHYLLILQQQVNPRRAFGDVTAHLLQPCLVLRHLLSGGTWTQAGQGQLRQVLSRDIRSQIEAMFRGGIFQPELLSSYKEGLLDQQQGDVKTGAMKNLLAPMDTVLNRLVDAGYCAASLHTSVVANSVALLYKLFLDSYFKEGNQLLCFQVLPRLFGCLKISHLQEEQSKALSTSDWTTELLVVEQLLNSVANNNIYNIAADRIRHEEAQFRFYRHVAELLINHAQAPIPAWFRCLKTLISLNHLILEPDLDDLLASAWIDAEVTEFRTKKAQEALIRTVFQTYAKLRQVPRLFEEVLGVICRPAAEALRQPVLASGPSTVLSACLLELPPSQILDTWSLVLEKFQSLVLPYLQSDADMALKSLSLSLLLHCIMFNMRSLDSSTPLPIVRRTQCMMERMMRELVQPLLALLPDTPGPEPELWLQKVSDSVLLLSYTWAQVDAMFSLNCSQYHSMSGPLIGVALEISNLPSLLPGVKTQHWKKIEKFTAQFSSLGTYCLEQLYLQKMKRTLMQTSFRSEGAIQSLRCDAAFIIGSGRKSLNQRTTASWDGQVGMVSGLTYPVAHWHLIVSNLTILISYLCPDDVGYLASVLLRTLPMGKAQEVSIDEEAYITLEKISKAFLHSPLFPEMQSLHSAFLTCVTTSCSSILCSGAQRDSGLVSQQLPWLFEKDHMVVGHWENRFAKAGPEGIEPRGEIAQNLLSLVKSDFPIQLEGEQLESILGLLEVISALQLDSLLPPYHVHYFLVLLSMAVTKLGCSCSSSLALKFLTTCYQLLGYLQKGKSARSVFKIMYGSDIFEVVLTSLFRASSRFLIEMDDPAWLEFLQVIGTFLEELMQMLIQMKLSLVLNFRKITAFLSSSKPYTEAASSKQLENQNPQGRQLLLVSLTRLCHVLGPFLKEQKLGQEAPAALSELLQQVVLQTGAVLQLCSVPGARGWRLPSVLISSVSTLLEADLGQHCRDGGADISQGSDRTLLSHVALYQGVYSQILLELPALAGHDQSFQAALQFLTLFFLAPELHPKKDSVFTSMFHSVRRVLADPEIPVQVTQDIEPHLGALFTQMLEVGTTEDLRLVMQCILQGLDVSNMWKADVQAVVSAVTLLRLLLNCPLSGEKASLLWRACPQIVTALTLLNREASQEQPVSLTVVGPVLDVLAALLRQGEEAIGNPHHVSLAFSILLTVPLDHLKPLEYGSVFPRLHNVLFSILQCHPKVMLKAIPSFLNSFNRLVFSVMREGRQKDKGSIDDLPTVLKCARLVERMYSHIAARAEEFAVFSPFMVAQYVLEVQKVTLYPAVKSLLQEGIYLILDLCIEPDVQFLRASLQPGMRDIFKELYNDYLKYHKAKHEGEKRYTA
UniProt Q8IWV7: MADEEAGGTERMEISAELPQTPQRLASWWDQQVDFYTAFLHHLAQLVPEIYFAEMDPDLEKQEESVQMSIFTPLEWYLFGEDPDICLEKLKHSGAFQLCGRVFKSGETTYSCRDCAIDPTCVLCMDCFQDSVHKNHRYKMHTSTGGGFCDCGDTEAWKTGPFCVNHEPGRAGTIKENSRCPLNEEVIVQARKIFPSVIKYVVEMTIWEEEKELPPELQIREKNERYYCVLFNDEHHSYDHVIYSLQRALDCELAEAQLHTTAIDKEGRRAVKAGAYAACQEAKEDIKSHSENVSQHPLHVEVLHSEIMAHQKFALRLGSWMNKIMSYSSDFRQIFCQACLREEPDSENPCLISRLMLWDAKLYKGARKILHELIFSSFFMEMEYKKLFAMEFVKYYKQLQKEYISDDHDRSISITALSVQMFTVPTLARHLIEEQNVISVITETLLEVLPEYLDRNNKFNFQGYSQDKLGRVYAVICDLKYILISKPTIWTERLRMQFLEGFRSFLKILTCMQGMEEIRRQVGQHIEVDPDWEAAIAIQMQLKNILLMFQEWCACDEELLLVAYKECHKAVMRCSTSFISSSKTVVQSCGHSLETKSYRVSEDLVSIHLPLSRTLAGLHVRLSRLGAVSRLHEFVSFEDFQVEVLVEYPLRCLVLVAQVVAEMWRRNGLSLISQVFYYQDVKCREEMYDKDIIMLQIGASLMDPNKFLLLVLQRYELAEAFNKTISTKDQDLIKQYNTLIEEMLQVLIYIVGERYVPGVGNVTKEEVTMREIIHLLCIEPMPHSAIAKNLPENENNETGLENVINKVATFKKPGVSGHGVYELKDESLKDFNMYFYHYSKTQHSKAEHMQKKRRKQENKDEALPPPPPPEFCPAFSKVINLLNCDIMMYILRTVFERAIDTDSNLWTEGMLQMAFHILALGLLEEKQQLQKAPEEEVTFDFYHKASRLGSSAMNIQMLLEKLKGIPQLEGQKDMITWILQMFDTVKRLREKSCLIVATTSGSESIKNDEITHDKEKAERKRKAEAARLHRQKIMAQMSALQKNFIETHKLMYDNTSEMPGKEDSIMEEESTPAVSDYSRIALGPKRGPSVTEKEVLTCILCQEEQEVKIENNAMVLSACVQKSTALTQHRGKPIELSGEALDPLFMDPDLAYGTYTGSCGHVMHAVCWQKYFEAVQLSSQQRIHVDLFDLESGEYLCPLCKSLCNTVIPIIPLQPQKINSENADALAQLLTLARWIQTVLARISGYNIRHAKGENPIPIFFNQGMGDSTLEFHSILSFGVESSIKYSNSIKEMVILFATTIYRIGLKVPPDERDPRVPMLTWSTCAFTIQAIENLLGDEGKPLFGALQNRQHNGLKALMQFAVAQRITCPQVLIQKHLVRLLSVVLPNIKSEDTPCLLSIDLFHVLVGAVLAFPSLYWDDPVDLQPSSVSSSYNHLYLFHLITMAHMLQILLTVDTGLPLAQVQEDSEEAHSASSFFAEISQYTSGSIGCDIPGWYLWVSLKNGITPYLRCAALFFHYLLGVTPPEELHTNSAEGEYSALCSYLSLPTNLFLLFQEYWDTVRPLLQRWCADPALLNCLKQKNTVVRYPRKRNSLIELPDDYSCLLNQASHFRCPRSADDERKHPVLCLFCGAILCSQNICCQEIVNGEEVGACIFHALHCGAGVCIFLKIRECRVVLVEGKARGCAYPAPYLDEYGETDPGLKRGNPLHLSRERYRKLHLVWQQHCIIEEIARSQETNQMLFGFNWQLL
UniProt Q8IZJ1, whole entry, looked up: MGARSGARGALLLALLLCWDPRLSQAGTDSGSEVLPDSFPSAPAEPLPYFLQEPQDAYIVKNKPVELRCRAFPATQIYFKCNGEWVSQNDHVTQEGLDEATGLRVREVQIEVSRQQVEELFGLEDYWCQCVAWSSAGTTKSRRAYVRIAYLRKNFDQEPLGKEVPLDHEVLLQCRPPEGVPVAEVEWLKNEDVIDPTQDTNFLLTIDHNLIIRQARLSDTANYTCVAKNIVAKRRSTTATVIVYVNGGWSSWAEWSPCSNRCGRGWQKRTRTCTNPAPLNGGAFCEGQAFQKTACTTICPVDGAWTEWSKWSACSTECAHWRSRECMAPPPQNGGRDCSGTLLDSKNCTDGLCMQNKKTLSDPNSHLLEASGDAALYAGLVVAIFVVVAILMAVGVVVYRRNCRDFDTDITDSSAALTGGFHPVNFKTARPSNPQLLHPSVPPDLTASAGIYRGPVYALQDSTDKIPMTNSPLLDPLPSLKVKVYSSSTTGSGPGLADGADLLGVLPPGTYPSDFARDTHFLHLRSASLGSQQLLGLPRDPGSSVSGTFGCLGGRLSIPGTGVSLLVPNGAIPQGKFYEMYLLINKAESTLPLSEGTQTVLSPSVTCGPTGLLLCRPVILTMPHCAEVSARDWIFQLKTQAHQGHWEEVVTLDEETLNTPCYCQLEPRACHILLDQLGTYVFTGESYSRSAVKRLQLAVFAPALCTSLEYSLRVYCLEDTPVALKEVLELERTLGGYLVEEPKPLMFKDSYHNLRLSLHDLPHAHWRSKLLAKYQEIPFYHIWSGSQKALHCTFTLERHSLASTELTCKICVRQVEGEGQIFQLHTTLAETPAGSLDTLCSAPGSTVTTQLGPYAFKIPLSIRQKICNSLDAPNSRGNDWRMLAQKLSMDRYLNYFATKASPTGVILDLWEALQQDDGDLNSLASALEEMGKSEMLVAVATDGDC
UniProt Q9H347: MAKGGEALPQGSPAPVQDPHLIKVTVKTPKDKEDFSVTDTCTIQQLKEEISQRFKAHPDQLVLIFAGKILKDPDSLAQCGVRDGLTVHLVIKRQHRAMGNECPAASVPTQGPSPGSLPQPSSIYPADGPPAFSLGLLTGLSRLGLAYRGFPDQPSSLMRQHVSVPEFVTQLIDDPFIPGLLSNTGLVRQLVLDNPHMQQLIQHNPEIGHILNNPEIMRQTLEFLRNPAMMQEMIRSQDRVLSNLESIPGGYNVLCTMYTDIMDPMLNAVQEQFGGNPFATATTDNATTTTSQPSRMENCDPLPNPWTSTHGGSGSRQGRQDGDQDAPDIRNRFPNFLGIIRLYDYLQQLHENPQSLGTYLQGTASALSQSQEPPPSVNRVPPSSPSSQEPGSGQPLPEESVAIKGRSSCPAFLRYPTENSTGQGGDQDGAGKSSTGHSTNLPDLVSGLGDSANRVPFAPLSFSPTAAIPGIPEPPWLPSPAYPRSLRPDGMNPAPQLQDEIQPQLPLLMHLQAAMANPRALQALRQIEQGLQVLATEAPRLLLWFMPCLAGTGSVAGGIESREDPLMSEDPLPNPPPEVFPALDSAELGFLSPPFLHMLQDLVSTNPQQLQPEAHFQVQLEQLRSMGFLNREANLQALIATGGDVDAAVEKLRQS
UniProt Q6UW78: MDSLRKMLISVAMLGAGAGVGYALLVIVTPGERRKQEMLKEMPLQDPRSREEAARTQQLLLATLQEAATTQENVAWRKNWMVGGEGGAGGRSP

Legend:
Test in all cases: log2 fold change, soluble protein after heating vs DMSO (PISA); higher = thermal stabilisation; K562 cells, 10 uM, 30 min; active = over 0.2 and 3.5 SD of the protein, either way, in both replicates (recomputed)
[1] = compound: CC1=C(SC2=C1C(=N[C@H](C3=NN=C(N32)C)CC(=O)N)C4=CC=C(C=C4)Cl)C
Procedure, shortened: (§1)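 K562 cells (2×10^6 cells/mL) were treated with 10 μM compound for 30 min, and aliquots were heated for 3 min over 48°C-58°C. Pooled aliquots were extracted in PBS with 0.5% NP-40 at 4°C, and the supernatant after 21,000xg for 90 min was measured by TMTpro 16plex LC-MS/MS with channel sums equalised. Reported thermal stability, relative to control samples and from duplicates, is a log2 fold change.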

[2] = compound: CC1=C2C(=CC=C1)N=C(N(C2=O)C3=CC=CC=C3C)CN4C=NC5=C(N=CN=C54)N
Procedure, shortened: as §1

[3] = compound: Cc1sc2c(c1C)C(c1ccc(Cl)cc1)=N[C@@H](CC(=O)OC(C)(C)C)c1nnc(C)n1-2
Procedure, shortened: as §1

[4] = compound: c1ccc([C@@H]2C[C@H]2NC2CCNCC2)cc1
Procedure, shortened: as §1

[5] = compound: C1=CC=C(C=C1)[C@H](COC2=CC3=C(C=C2)NC(=O)N3)NC(=O)C4=CC=CN(C4=O)CC5=CC(=C(C=C5)F)F
Procedure, shortened: as §1

Measured: log2 fold change

USB1 (UniProt Q9BQ65)
inactive: [1] 0.256 | [2] -0.159 | [3] -0.035 | [4] 0

UPRT (UniProt Q96BW1)
inactive: [5] -0.076 | [1] -0.064 | [2] 0.061 | [4] -0.145

UMAD1 (UniProt C9J7I0)
inactive: [5] 0.133 | [1] 0.004 | [3] 0.064 | [4] 0.087

UCK1 (UniProt Q9HA47)
inactive: [5] -0.035 | [1] 0.013 | [2] 0.015 | [3] 0.001 | [4] -0.002

ULBP1 (UniProt Q9BZM6)
inactive: [1] 0.014 | [2] -0.001 | [3] -0.036 | [4] -0.038

UCK2 (UniProt Q9BZX2)
inactive: [5] 0.011 | [1] 0.037 | [2] 0.022 | [3] -0.015 | [4] 0.023

VASN (UniProt Q6EMK4)
inactive: [5] 0.403 | [2] -0.001

UPP1 (UniProt Q16831)
inactive: [3] 0.182

USP6NL isoform 2 (UniProt Q92738)
inactive: [1] 0.121 | [2] 0.158 | [3] 0.029 | [4] 0.092

USP27X (UniProt A6NNY8)
inactive: [1] 0.134 | [3] -0.25 | [4] 0.103

UBQLN1 (UniProt Q9UMX0)
inactive: [5] 0.01 | [1] -0.033 | [2] 0.055 | [3] -0.089 | [4] 0.021

UNC93B1 (UniProt Q9H1C4)
inactive: [5] 0.055 | [1] -0.026 | [4] 0.109

URM1 isoform 2 (UniProt Q9BTM9)
inactive: [5] -0.005 | [2] 0.093 | [3] 0.082

USF1 (UniProt P22415)
inactive: [5] -0.04 | [2] 0.155

USF3 (UniProt Q68DE3)
inactive: [5] -0.015 | [2] 0.185

USP20 (UniProt Q9Y2K6)
inactive: [5] 0.12 | [1] -0.167 | [2] 0.052 | [4] -0.022

USP12 (UniProt O75317)
inactive: [1] 0.02 | [2] -0.032 | [3] -0.258 | [4] 0.012

USP11 (UniProt P51784)
inactive: [1] 0.024 | [4] -0.025

UHRF1 isoform 2 (UniProt Q96T88)
inactive: [3] 0.008

UNC13A (UniProt Q9UPW8)
inactive: [5] -0.032 | [3] -0.021

UTP20 (UniProt O75691)
inactive: [3] 0.034

Two neighbouring entries already listed:
UHRF1 isoform 2 (UniProt Q96T88)
inactive: [3] 0.008

UNC13A (UniProt Q9UPW8)
inactive: [5] -0.032 | [3] -0.021

Next part

URB2 (UniProt Q14146)
inactive: [5] -0.017 | [1] -0.096 | [4] -0.099

UBR1 (UniProt Q8IWV7)
inactive: [5] -0.004 | [1] -0.824 | [4] -0.059

UNC5B (UniProt Q8IZJ1)
inactive: [2] -0.076 | [3] -0.107

USP54 (UniProt Q70EL1)
inactive: [5] -0.109 | [2] 0.013 | [3] 0.056

UBQLN3 (UniProt Q9H347)
inactive: [1] -0.042 | [2] 0.173 | [3] 0.049 | [4] 0.128

UTP23 (UniProt Q9BRU9)
inactive: [1] -0.193 | [4] -0.131

USP32 (UniProt Q8NFA0)
inactive: [1] -0.19 | [3] -0.001 | [4] -0.046

UBE3B (UniProt Q7Z3V4)
inactive: [5] -0.081 | [1] -0.147 | [3] -0.214 | [4] 0.172

VAV1 (UniProt P15498)
inactive: [1] 0.133 | [2] 0.095 | [3] 0.072 | [4] -0.086

UQCC3 (UniProt Q6UW78)
inactive: [5] -0.453 | [1] -0.072 | [4] 0.238

USP46 (UniProt P62068)
inactive: [2] 0.077

UBN2 (UniProt Q6ZU65)
inactive: [1] 0.037 | [2] 0.2 | [4] 0.015
